Test results taken from article PMC5469476.
No constants are given. Whether binding was seen depends on the method and setting. Some binding calls cover weakened binding; strength is not graded here. Tags and fused reporters may be left off the sequences shown.

Target: T1, human glucagon-like peptide-1 receptor (GLP1R) with C-terminal 1D4 epitope, purified in nanodiscs (GLP1R-ND) (human), P43220
T1 chain: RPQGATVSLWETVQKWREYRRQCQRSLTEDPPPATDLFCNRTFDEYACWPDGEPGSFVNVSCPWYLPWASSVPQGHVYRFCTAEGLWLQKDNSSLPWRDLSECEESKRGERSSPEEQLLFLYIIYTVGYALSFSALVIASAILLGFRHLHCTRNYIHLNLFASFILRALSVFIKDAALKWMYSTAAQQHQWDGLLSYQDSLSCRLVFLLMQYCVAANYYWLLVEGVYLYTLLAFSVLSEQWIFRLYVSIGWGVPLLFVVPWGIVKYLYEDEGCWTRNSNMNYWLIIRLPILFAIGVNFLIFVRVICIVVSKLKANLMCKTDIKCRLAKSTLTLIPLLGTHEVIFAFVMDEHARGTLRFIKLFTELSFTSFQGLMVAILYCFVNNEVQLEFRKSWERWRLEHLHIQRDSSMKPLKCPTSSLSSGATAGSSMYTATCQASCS
Test: SDS-PAGE and western blot (SDS-resistant band); HEK293S cells stably transfected with GLP1R, induced; blot with 1D4 antibody; bands at ~50 kDa and ~100 kDa
Conditions: remark: other sources report otherwise

binding: binds
B1: human glucagon-like peptide-1 receptor (GLP1R) with C-terminal 1D4 epitope, purified in nanodiscs (GLP1R-ND), P43220 24-463 (receptor)
chain: T1 chain
